{
  "sequences": {"note": "Amino acid sequences for entries named in this document (tags omitted). A change or cut given only in a name is not applied to a line headed by its entry.", "UniProt O15357": "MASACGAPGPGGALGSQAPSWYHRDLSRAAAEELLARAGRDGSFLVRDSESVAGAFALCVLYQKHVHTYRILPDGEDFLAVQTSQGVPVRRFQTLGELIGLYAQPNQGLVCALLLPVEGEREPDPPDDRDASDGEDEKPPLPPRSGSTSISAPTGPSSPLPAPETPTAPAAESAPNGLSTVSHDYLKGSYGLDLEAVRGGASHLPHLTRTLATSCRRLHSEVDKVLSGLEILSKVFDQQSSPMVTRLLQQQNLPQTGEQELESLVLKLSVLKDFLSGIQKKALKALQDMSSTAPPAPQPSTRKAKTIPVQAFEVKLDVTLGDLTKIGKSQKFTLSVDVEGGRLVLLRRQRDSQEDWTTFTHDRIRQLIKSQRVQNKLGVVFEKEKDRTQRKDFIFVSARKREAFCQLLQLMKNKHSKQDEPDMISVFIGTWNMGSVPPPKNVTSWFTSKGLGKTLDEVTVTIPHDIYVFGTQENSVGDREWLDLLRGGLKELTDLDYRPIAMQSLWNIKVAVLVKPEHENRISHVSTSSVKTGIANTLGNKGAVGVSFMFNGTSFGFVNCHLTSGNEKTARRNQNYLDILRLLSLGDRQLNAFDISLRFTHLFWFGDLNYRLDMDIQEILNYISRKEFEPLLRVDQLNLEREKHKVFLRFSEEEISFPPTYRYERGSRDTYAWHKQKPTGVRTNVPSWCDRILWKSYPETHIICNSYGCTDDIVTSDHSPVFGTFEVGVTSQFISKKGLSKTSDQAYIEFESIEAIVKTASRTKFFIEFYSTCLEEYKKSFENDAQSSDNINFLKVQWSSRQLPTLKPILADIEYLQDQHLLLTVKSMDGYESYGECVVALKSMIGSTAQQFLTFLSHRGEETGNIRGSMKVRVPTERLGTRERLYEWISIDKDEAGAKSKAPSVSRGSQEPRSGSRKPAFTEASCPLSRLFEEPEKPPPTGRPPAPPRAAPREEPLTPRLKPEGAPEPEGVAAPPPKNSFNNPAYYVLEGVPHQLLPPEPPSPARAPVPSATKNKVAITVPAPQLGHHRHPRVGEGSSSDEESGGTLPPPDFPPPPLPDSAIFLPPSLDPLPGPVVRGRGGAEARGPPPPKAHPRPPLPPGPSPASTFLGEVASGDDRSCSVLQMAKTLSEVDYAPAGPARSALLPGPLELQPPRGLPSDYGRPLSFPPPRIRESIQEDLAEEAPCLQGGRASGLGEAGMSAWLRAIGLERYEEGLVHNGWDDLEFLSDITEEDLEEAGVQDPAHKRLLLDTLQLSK", "UniProt P05107, whole entry, looked up": "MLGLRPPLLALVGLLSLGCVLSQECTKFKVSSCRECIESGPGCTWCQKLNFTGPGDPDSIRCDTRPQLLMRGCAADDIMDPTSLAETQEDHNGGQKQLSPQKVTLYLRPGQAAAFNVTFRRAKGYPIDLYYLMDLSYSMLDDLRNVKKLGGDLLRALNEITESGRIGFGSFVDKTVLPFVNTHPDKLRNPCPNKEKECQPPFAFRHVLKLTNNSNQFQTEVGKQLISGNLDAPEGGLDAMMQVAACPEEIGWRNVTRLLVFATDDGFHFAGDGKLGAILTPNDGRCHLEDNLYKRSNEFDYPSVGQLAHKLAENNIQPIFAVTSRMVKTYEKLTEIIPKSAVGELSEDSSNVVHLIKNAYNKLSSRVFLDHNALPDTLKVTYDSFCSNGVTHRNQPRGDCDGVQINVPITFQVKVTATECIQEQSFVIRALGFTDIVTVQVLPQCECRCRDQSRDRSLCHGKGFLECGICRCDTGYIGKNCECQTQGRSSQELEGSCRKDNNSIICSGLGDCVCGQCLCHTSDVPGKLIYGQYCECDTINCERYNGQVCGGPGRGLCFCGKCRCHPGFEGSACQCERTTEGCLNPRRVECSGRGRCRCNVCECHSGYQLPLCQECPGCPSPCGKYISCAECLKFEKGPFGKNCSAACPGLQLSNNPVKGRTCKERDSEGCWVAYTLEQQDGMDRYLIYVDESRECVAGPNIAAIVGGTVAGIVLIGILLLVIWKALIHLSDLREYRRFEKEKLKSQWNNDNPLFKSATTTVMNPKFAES", "UniProt O00410": "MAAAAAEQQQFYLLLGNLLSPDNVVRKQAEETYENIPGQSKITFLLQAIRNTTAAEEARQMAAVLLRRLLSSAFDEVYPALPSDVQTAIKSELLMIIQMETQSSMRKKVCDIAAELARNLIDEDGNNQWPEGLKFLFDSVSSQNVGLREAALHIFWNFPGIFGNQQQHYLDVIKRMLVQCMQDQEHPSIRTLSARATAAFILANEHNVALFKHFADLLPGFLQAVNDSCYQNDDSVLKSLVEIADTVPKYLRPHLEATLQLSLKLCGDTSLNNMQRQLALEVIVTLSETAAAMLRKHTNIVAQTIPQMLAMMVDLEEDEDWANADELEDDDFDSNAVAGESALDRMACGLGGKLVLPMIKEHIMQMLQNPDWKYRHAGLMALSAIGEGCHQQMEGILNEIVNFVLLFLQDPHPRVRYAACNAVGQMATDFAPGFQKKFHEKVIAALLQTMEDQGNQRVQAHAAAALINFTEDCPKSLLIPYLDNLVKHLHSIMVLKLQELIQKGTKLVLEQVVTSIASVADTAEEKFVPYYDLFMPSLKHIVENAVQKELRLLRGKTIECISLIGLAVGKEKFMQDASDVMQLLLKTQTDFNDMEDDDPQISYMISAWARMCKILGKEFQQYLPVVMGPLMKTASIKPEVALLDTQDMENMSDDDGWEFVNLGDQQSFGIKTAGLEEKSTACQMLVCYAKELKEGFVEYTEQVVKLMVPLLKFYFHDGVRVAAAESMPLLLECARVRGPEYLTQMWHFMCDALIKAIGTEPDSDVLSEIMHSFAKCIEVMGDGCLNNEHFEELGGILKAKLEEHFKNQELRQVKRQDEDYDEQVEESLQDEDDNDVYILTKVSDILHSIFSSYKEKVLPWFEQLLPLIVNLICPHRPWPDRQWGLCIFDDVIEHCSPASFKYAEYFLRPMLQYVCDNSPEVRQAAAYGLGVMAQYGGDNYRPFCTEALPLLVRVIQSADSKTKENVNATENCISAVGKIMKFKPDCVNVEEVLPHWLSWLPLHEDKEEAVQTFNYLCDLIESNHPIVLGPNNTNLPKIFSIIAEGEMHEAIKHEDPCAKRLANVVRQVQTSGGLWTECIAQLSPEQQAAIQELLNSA", "UniProt Q5TA45, whole entry, looked up": "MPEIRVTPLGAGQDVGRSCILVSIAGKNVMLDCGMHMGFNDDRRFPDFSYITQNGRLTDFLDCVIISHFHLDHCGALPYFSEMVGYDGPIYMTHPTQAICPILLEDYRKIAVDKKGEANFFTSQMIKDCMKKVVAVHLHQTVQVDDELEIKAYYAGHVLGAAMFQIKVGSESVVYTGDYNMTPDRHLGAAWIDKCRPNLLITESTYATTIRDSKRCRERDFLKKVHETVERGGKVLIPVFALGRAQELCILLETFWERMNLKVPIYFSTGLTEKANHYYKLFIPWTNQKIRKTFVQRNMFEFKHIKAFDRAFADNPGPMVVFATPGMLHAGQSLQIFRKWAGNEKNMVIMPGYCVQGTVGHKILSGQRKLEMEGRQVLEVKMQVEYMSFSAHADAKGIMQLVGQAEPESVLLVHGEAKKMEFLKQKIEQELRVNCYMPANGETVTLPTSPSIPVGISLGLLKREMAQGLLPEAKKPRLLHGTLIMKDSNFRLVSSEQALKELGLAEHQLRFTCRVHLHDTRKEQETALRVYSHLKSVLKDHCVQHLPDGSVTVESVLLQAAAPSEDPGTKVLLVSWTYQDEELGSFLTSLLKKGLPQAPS", "UniProt Q8TEX9": "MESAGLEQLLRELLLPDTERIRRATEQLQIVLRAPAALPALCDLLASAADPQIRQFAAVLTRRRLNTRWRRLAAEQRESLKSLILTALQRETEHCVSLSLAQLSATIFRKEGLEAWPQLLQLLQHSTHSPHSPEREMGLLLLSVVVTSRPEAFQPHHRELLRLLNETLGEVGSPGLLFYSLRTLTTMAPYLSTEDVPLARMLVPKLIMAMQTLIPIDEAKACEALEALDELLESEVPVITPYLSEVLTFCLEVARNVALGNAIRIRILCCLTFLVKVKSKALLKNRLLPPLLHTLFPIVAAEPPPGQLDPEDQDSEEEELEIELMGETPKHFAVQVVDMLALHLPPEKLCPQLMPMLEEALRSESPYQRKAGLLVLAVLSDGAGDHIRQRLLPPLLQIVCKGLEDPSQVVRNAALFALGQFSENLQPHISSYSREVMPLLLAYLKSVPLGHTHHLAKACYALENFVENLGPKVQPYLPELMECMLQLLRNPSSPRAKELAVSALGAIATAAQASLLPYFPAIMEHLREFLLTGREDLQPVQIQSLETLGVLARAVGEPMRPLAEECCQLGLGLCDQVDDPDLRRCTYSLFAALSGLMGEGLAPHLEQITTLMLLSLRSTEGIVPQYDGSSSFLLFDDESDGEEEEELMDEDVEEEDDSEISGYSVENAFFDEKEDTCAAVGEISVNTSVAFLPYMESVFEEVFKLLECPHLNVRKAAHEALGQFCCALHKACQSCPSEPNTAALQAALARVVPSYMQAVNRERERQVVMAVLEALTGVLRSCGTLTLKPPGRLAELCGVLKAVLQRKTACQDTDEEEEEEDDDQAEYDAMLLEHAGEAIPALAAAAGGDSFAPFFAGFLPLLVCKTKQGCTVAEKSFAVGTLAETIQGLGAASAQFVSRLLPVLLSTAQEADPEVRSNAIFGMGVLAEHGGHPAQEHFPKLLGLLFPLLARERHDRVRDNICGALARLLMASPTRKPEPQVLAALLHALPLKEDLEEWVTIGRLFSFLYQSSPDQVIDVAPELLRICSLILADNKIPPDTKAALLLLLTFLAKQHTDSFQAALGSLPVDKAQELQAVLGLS", "UniProt P46940, whole entry, looked up": "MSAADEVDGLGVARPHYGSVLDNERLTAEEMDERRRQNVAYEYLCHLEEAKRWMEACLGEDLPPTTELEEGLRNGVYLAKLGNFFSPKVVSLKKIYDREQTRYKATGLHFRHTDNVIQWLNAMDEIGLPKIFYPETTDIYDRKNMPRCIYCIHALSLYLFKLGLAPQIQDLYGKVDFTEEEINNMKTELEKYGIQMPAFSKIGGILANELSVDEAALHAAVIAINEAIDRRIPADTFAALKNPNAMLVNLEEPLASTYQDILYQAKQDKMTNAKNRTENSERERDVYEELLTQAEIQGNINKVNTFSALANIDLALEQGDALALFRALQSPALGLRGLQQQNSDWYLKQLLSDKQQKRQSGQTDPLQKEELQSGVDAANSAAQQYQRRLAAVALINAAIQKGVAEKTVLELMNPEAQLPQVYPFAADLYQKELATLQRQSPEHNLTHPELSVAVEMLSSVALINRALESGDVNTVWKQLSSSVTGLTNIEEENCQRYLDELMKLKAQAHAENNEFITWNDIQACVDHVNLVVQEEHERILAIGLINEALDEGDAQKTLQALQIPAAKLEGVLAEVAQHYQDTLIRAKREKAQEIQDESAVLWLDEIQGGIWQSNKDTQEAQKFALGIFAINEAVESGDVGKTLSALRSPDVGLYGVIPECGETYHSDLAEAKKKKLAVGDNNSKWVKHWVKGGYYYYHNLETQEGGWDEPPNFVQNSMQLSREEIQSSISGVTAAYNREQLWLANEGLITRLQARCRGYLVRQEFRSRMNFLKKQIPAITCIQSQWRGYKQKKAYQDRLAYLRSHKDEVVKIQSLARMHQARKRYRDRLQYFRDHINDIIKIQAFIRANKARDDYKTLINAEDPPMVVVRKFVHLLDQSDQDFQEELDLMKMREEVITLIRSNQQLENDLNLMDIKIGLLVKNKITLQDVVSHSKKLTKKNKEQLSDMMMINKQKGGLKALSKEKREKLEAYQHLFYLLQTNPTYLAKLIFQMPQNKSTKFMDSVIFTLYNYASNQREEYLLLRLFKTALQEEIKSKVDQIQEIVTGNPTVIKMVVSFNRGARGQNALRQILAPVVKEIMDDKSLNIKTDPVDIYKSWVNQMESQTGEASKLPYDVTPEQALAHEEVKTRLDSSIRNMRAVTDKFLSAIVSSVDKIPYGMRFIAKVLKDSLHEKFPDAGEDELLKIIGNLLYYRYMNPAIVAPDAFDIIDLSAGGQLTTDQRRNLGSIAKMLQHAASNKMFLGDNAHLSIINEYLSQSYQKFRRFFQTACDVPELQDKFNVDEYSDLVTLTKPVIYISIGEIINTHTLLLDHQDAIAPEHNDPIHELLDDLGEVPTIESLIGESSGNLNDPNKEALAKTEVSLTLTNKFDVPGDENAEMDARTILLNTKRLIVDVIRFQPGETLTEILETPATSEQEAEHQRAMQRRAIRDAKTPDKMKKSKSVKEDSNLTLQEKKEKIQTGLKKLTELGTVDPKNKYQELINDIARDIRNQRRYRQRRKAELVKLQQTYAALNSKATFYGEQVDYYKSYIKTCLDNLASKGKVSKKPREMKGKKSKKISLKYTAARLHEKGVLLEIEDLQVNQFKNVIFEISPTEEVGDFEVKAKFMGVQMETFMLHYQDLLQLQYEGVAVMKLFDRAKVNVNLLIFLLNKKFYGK"},
  "source": "the supplement of paper PMC12067093",
  "about": "“Discovery and optimisation of a covalent ligand for TRIM25 and its application to targeted protein ubiquitination” (Chemical Science, 2025)",
  "note": "The list shows a part of the results.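 Also: competitive profiling in live THP-1 cells: cysteine peptides tagged with an iodoacetamide desthiobiotin (IA-DTB) probe, intensity after compound treatment relative to DMSO-treated cells.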",
  "data": [
    {"compound": "Cc1cc(ccc1-c1ccccc1)C(=O)N1CCCN(CC1)C(=O)CCl [compound 10]", "experiment": "probe-labelled cysteine peptide fold change vs DMSO (competition) (log2 fold change); higher = less target engagement (more negative = stronger competition)", "details": "10 µM; THP-1; incubation time: 4 h", "values": [
      {"target": "INPPL1_O15357_1121_SCSVLQMAK (UniProt O15357)", "probe-labelled cysteine peptide fold change": -0.309},
      {"target": "ITGAL_P20701_1154_GVPNGIPAEDSEQLASGQEAGDPGCLKPLHEK (UniProt P20701)", "probe-labelled cysteine peptide fold change": -0.146},
      {"target": "ISCU_Q9H1K1_130_ELCLPPVK (UniProt Q9H1K1)", "probe-labelled cysteine peptide fold change": -0.247},
      {"target": "IRF8_Q02556_138_LGVATAGCVNEVTEMECGR (UniProt Q02556)", "probe-labelled cysteine peptide fold change": 0.226},
      {"target": "ITGB2_P05107_573+575_CHPGFEGSACQCER (UniProt P05107)", "probe-labelled cysteine peptide fold change": -0.116},
      {"target": "ITGAL_P20701_845_PHSQIPVSCEELPEESR (UniProt P20701)", "probe-labelled cysteine peptide fold change": -0.418},
      {"target": "ITGB2_P05107_445+447_ALGFTDIVTVQVLPQCECR (UniProt P05107)", "probe-labelled cysteine peptide fold change": -0.00166},
      {"target": "IPO5_O00410_180_MLVQCMQDQEHPSIR (UniProt O00410)", "probe-labelled cysteine peptide fold change": 0.0241},
      {"target": "INTS3_Q68E01_866_MVLSRPCHPDDQFTTSILR (UniProt Q68E01)", "probe-labelled cysteine peptide fold change": -0.0901},
      {"target": "IRS2_Q9Y4H2_409_SHTLSGGCGGR (UniProt Q9Y4H2)", "probe-labelled cysteine peptide fold change": -0.194},
      {"target": "IPO5_O00410_682_STACQMLVCYAK (UniProt O00410)", "probe-labelled cysteine peptide fold change": 0.0796},
      {"target": "IPO7_O95373_477+484_ACWVLHYFCEVK (UniProt O95373)", "probe-labelled cysteine peptide fold change": -0.102},
      {"target": "ISG15_P05161_78_LAVHPSGVALQDRVPLASQGLGPGSTVLLVVDKCDEPLSILVR (UniProt P05161)", "probe-labelled cysteine peptide fold change": -0.05},
      {"target": "INTS2_Q9H0H0_1186_DTGSMDPDVQLCHCIER (UniProt Q9H0H0)", "probe-labelled cysteine peptide fold change": 0.125},
      {"target": "IRF2BP2_Q7Z5L9_37_MPWAMIWDFTEPVCR (UniProt Q7Z5L9)", "probe-labelled cysteine peptide fold change": 0.414},
      {"target": "INTS11_Q5TA45_354_NMVIMPGYCVQGTVGHK (UniProt Q5TA45)", "probe-labelled cysteine peptide fold change": 0.0373},
      {"target": "IPO8_O15397_478_SCWVLHAFSSLK (UniProt O15397)", "probe-labelled cysteine peptide fold change": -0.071},
      {"target": "ITGB2_P05107_536_LIYGQYCECDTINCER (UniProt P05107)", "probe-labelled cysteine peptide fold change": -0.0384},
      {"target": "INSR_P06213_825_IELQACNQDTPEER (UniProt P06213)", "probe-labelled cysteine peptide fold change": -0.175},
      {"target": "IRF8_Q02556_299+306_VFCSGNAVVCK (UniProt Q02556)", "probe-labelled cysteine peptide fold change": 0.143},
      {"target": "INSR_P06213_899_YGDEELHLCVSR (UniProt P06213)", "probe-labelled cysteine peptide fold change": -0.0624},
      {"target": "INTS1_Q8N201_2099_LMSSAEECCR (UniProt Q8N201)", "probe-labelled cysteine peptide fold change": 0.0884},
      {"target": "INTS8_Q75QN2_295_ELIAEIGSLSLHCTIDEK (UniProt Q75QN2)", "probe-labelled cysteine peptide fold change": 0.154},
      {"target": "INPP5F_Q9Y2H2_725_NPEEDGKDTLQCIAEMLQITK (UniProt Q9Y2H2)", "probe-labelled cysteine peptide fold change": -0.0594},
      {"target": "IPO7_O95373_504_CLIDDR (UniProt O95373)", "probe-labelled cysteine peptide fold change": 0.17},
      {"target": "INSR_P06213_674_QAEDSELFELDYCLK (UniProt P06213)", "probe-labelled cysteine peptide fold change": 0.0205},
      {"target": "IPO4_Q8TEX9_400_LLPPLLQIVCK (UniProt Q8TEX9)", "probe-labelled cysteine peptide fold change": -0.0999},
      {"target": "ITPA_Q9BY32_33_FPCTLVAQK (UniProt Q9BY32)", "probe-labelled cysteine peptide fold change": 0.177},
      {"target": "ITGB2_P05107_467+470_GFLECGICR (UniProt P05107)", "probe-labelled cysteine peptide fold change": 0.141},
      {"target": "IQGAP1_P46940_660_SPDVGLYGVIPECGETYHSDLAEAK (UniProt P46940)", "probe-labelled cysteine peptide fold change": -0.194},
      {"target": "IRF2BP1_Q8IU81_15_RQWCYLCDLPK (UniProt Q8IU81)", "probe-labelled cysteine peptide fold change": 0.275},
      {"target": "IRAK3_Q9Y616_572_VNIDPSSEAPGHSCR (UniProt Q9Y616)", "probe-labelled cysteine peptide fold change": -0.282},
      {"target": "IPO9_Q96P70_545_AIWGYCDQLK (UniProt Q96P70)", "probe-labelled cysteine peptide fold change": 0.0549},
      {"target": "INTS9_Q9NV88_14_LYCLSGHPTLPCNVLK (UniProt Q9NV88)", "probe-labelled cysteine peptide fold change": 0.0888},
      {"target": "IPO5_O00410_687_STACQMLVCYAK (UniProt O00410)", "probe-labelled cysteine peptide fold change": -0.0903},
      {"target": "IRF2BP2_Q7Z5L9_16_RQSCYLCDLPR (UniProt Q7Z5L9)", "probe-labelled cysteine peptide fold change": 0.00367},
      {"target": "ITGB1_P05556_64_CDDLEALKK (UniProt P05556)", "probe-labelled cysteine peptide fold change": -0.158},
      {"target": "ITGB1_P05556_574_SNGLICGGNGVCK (UniProt P05556)", "probe-labelled cysteine peptide fold change": -0.173},
      {"target": "INTS7_Q9NVH2_42_LGEQCEAVVR (UniProt Q9NVH2)", "probe-labelled cysteine peptide fold change": -0.174},
      {"target": "ITGB2_P05107_36_ECIESGPGCTWCQK (UniProt P05107)", "probe-labelled cysteine peptide fold change": 0.199}
    ]},
    {"compound": "Cc1cc(ccc1-c1ccccc1)C(=O)N1CCCN(CC1)C(=O)CCl [compound 10]", "experiment": "probe-labelled cysteine peptide fold change vs DMSO (competition) (log2 fold change); higher = less target engagement (more negative = stronger competition)", "details": "50 µM; THP-1; incubation time: 4 h", "values": [
      {"target": "INPPL1_O15357_1121_SCSVLQMAK (UniProt O15357)", "probe-labelled cysteine peptide fold change": -0.579},
      {"target": "ITGAL_P20701_1154_GVPNGIPAEDSEQLASGQEAGDPGCLKPLHEK (UniProt P20701)", "probe-labelled cysteine peptide fold change": -0.415},
      {"target": "ISCU_Q9H1K1_130_ELCLPPVK (UniProt Q9H1K1)", "probe-labelled cysteine peptide fold change": -0.408},
      {"target": "IRF8_Q02556_138_LGVATAGCVNEVTEMECGR (UniProt Q02556)", "probe-labelled cysteine peptide fold change": 0.082},
      {"target": "ITGB2_P05107_573+575_CHPGFEGSACQCER (UniProt P05107)", "probe-labelled cysteine peptide fold change": -0.361},
      {"target": "ITGAL_P20701_845_PHSQIPVSCEELPEESR (UniProt P20701)", "probe-labelled cysteine peptide fold change": 0.101},
      {"target": "ITGB2_P05107_445+447_ALGFTDIVTVQVLPQCECR (UniProt P05107)", "probe-labelled cysteine peptide fold change": -0.199},
      {"target": "IPO5_O00410_180_MLVQCMQDQEHPSIR (UniProt O00410)", "probe-labelled cysteine peptide fold change": -0.0412},
      {"target": "INTS3_Q68E01_866_MVLSRPCHPDDQFTTSILR (UniProt Q68E01)", "probe-labelled cysteine peptide fold change": 0.0639},
      {"target": "IRS2_Q9Y4H2_409_SHTLSGGCGGR (UniProt Q9Y4H2)", "probe-labelled cysteine peptide fold change": -0.526},
      {"target": "IPO5_O00410_682_STACQMLVCYAK (UniProt O00410)", "probe-labelled cysteine peptide fold change": -0.0653},
      {"target": "IPO7_O95373_477+484_ACWVLHYFCEVK (UniProt O95373)", "probe-labelled cysteine peptide fold change": 0.383},
      {"target": "ISG15_P05161_78_LAVHPSGVALQDRVPLASQGLGPGSTVLLVVDKCDEPLSILVR (UniProt P05161)", "probe-labelled cysteine peptide fold change": -0.542},
      {"target": "INTS2_Q9H0H0_1186_DTGSMDPDVQLCHCIER (UniProt Q9H0H0)", "probe-labelled cysteine peptide fold change": 0.152},
      {"target": "IRF2BP2_Q7Z5L9_37_MPWAMIWDFTEPVCR (UniProt Q7Z5L9)", "probe-labelled cysteine peptide fold change": -0.205},
      {"target": "INTS11_Q5TA45_354_NMVIMPGYCVQGTVGHK (UniProt Q5TA45)", "probe-labelled cysteine peptide fold change": 0.00217},
      {"target": "IPO8_O15397_478_SCWVLHAFSSLK (UniProt O15397)", "probe-labelled cysteine peptide fold change": 0.0544},
      {"target": "ITGB2_P05107_536_LIYGQYCECDTINCER (UniProt P05107)", "probe-labelled cysteine peptide fold change": -0.138},
      {"target": "INSR_P06213_825_IELQACNQDTPEER (UniProt P06213)", "probe-labelled cysteine peptide fold change": -0.0277},
      {"target": "IRF8_Q02556_299+306_VFCSGNAVVCK (UniProt Q02556)", "probe-labelled cysteine peptide fold change": -0.622},
      {"target": "INSR_P06213_899_YGDEELHLCVSR (UniProt P06213)", "probe-labelled cysteine peptide fold change": 0.262},
      {"target": "INTS1_Q8N201_2099_LMSSAEECCR (UniProt Q8N201)", "probe-labelled cysteine peptide fold change": -0.34},
      {"target": "INTS8_Q75QN2_295_ELIAEIGSLSLHCTIDEK (UniProt Q75QN2)", "probe-labelled cysteine peptide fold change": -0.0496},
      {"target": "INPP5F_Q9Y2H2_725_NPEEDGKDTLQCIAEMLQITK (UniProt Q9Y2H2)", "probe-labelled cysteine peptide fold change": -0.295},
      {"target": "IPO7_O95373_504_CLIDDR (UniProt O95373)", "probe-labelled cysteine peptide fold change": 0.185},
      {"target": "INSR_P06213_674_QAEDSELFELDYCLK (UniProt P06213)", "probe-labelled cysteine peptide fold change": -0.147},
      {"target": "IPO4_Q8TEX9_400_LLPPLLQIVCK (UniProt Q8TEX9)", "probe-labelled cysteine peptide fold change": -0.376},
      {"target": "ITPA_Q9BY32_33_FPCTLVAQK (UniProt Q9BY32)", "probe-labelled cysteine peptide fold change": 0.248},
      {"target": "ITGB2_P05107_467+470_GFLECGICR (UniProt P05107)", "probe-labelled cysteine peptide fold change": -0.357},
      {"target": "IQGAP1_P46940_660_SPDVGLYGVIPECGETYHSDLAEAK (UniProt P46940)", "probe-labelled cysteine peptide fold change": 0.116},
      {"target": "IRF2BP1_Q8IU81_15_RQWCYLCDLPK (UniProt Q8IU81)", "probe-labelled cysteine peptide fold change": 0.0862},
      {"target": "IRAK3_Q9Y616_572_VNIDPSSEAPGHSCR (UniProt Q9Y616)", "probe-labelled cysteine peptide fold change": -0.332},
      {"target": "IPO9_Q96P70_545_AIWGYCDQLK (UniProt Q96P70)", "probe-labelled cysteine peptide fold change": -0.092},
      {"target": "INTS9_Q9NV88_14_LYCLSGHPTLPCNVLK (UniProt Q9NV88)", "probe-labelled cysteine peptide fold change": 0.164},
      {"target": "IPO5_O00410_687_STACQMLVCYAK (UniProt O00410)", "probe-labelled cysteine peptide fold change": 0.00854},
      {"target": "IRF2BP2_Q7Z5L9_16_RQSCYLCDLPR (UniProt Q7Z5L9)", "probe-labelled cysteine peptide fold change": -0.1},
      {"target": "ITGB1_P05556_64_CDDLEALKK (UniProt P05556)", "probe-labelled cysteine peptide fold change": -0.268},
      {"target": "ITGB1_P05556_574_SNGLICGGNGVCK (UniProt P05556)", "probe-labelled cysteine peptide fold change": -0.184},
      {"target": "INTS7_Q9NVH2_42_LGEQCEAVVR (UniProt Q9NVH2)", "probe-labelled cysteine peptide fold change": 0.125},
      {"target": "ITGB2_P05107_36_ECIESGPGCTWCQK (UniProt P05107)", "probe-labelled cysteine peptide fold change": 0.128}
    ]}
  ]
}
